Reference: PMC12979858

Chains of the proteins cited; added tags and fusions are not shown.
UniProt Q8CGF6: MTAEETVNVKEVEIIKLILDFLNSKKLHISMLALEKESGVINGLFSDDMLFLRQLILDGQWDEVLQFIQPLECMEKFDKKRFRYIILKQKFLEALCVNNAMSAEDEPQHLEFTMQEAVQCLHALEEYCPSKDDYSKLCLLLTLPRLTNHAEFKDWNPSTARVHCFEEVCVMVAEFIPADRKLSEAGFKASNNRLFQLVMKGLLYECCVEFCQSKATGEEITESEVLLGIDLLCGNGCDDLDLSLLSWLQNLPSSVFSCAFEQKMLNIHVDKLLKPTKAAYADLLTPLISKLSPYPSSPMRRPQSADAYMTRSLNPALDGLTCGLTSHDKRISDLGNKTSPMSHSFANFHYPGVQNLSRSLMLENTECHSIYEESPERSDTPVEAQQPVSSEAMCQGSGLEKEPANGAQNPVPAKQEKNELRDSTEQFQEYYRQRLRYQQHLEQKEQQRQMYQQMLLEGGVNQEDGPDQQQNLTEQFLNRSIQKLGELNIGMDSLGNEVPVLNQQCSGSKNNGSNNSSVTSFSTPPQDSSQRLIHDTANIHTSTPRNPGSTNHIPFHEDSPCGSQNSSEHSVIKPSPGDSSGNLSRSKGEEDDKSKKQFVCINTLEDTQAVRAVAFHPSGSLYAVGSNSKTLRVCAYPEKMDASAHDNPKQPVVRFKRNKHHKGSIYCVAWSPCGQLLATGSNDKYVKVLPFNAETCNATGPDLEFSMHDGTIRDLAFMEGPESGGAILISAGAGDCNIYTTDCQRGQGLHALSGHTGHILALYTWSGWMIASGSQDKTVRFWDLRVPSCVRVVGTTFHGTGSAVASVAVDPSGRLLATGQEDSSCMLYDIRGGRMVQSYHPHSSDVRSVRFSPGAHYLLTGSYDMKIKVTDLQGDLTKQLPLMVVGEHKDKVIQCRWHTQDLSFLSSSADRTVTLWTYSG

Molecular target: APEX2-WDR47 (mouse) (UniProt Q8CGF6)
Assay: proximity labelling; APEX2-WDR47 expressed in mEPCs by adenovirus; 500 uM biotin-phenol at 37 C for 30 min, 1 mM H2O2 for 1 min; lysis in RIPA buffer, biotinylated proteins on streptavidin-conjugated agarose beads, shotgun mass spectrometry; cutoff >= twofold peptide ratio against the mock-treated control

B1: SPAG16 (protein, UniProt Q8K450 1-639)
chain: MAAPSGVPPLRVLEELGIGLSPTGEVTEAVTSEGAYYLEQVTITETSEDECEYEEIPDDNFSIPEGEEDLEKAIHIIGEQARDIHILEQQTILPARNVMQEAIEDFLCNFLIKMGMTRTLDCFQAEWYELIQKKGSDFKGLGNVPDVYSQVMLLETENKNLKKELKHFKQAAEKAKEDLLRTQKERDFHRMHHKRIVQEKNKLIADLKGLKLHYASYEPTIRVLHEKHHALLKEKMLTSLERDRAVGKISGLQATLKNIDMGHIQVPVIKGSYESASITRESGDRAGHSCEKENSSEGPTQKSLREAREEVGYKSKLKNEKKDSEFPVDMQPDPNVTSCTENVSAAKFDYKLNNIFRLHELPVSCIVMHPCRDYLISCSEDRLWKMVGLPQGNVLLTGSGHTDWLSGCCFHPSGSKLATSSGDSTIKLWDLNKGECTLTLEGHNHAVWSCTWHSCGDFVASASLDMTSKIWDVNSERCRYTLYGHTDSVNSIEFFPFSNILLTASADKTLSVWDARTGKCEQSLYGHMHSVNDATFTPRGHIIASCDARGVTKLWDFRKLIPIVSIDVGPSSGNEVNFDQSGRVLAQASANGIIHLLDLKSGQIHKLVGHESEVHSVVFSHLGENLYSGGSDGTIRLWI
binding: binds

B2: KIF9 (protein, UniProt Q9WV04 1-790)
chain: MGTRKKVQAFVRVRPTDDFAHEMIKYGEDNKSIDIHLKKDTRRGVVNNQQTDWSFKLDGVLHNASQDLVYETVAKDAVSQALDGYNGTIMCYGQTGAGKTYTMTGATENYKHRGILPRALQQVFRMIEERPTHAITVRVSYLEIYNENLFDLLSTLPYVGPSVTPMTIVENPQGIFIKGLSVHLTSQEEDAFSLLFEGETNRIIASHTMNKNSSRSHCIFTIYMEAHSRTLSDEKYITSKINLVDLAGSERLSKTGSEGRVLKEATYINKSLSFLEQAIIALGDQNRDHVPFRQSKLTHALKDSLGGNCNMVLVTNIYGEAAQLDETLSSLRFASRMKLVTTEPAINEKYDAERMVKNLEKELALLKQELAIHDSLSNRTLVNYDPMDEIQIAEINSQVRRYLEGTLDEIDIINLRQIQEVFNQFRVVLSQQEQEVESALRRKYTLIDKNDFAAISAVQKVGLMDIEGNLVGEPDGQSFGLGVAPFSVKPGKKPKTKKTPKDQFSSSARKEGASSPVSGKDFDVASISKTQLIPSSKDGDLKDMLARERETSSIEPLISDSPKEELRAPRPSTPPSRTVAFEEFKNERGSEINRIFKENKSILNERKKRASETTQRINAIKQEIDETKDALNFQKSLREKQGEYENKGLMIIDEEEFLLILKLKDLKKQYRNEYQELRDLRAEIQYCQRLVDQCRHRLLMEFDIWYNESFMIPEDVQVALKLGSSIRPGMVPISRIVCLGEDDQDRFSHLQQTVLPEGLDSITFYNAKVKTDQKHNYMKTMVGLQQSHRK
binding: binds

B3: LRGUK (protein, UniProt Q9D5S7 1-820)
chain: MAAFERNPSRWKGTRFRRGLGASRIAAQAILSLTEKQSQGRWPSFPLGLKSKGTFRSASSYLLHQLIHRSHEAEAEQEEKQQEDGESEESEESEMQNLEDKYDGILREETVAEAITGLGWSGRGTEQVYLNLNLSHCELVDISILCGYVHLQKLNLSGNRIEDLSCVSCMPYLLELNASQNKLTTFFNFKPPQNLKKVDFSSNLISEMYDLSAYHTLTQLILDNNEIEEITGLENCISLTHLSLAGNKITTIKGLGTLPIKVLSLSNNMIETITGLEELKALQNLDLSHNQISSLQGLENHDLLEVINLEDNKIKELSEIEYIENLPILRVLNLLRNPIQTKPEYWFFVIYMLLRLTELDQQKIKVEEKVFAVNKYDPPPEVVAVQDHMTHVVNSMSQPQRIWDSTLPSLDAPYPMLILTGPAACGKRELAHRLCRQFSTYFRYGACHTTRPPYFGEGDRVDYHFISQEVFDEMLNMGKFILTFNYGNHNYGLNRDTIEGIARDGLASCIHMELEGVRSLKYSYFEPRYILVVPMDKEKYEGYLRRKGLFSRAEIEIAVSRVDLYVKVNQKYPGYFDAVINADDMDIAYQKLSELIREYLGLTETAAKTLAPTADTKTSYLKCEDYSRKSSTVEFLDSTDRNYFTKLWAKLSSKKSPVERESLHRQHEAARQALMGKTPRDHTLLFQRGPVPIPTVSGQQYFATIDELQKTFELSDDLFKTPSGTYPETSKDSNISKRYSTYFHTCPWSKELPFQLPEGGISSRPGSAGSDEVDGALKALRVASSMQEKVAQHKRLSAITIMDPGSNTKPTLPPIPHGRR
binding: binds

B4: CFAP69 (protein, UniProt Q8BH53 1-942)
chain: MSTAEASATTADAAEAGGRTKTGSPRTIPVFGVAIPDGEMQGIFKPMDLNRIIKVLEEEDKDVSEEKQLNYIKKLIHCYQNGFPLRDLAQIFKILSLCAEKIEKQPCFVEPASDIIKLCGLPFLKKKVSDEITYTEDTANSFALLGELMKIPSSALRIQICKCIVDFYHAEPLKKHIPGYQQVSSSYKIKMVEVGGLAKAMVQSALLLENQLVEKLWVLKVLQHLSTSGVNCTLMVKAQAASGICAHLNDPDPSGQLLFRSSEVLWNLLEKSSKEEIIQQLSNLECLLALKEVFKNLFVRGHSHYERQLRNDILVITTIIAQNPGAPMIECGFTRDLILFATFNEVKSQNPLVKSLKLFNCYEDFELKKLLFNIIVILCKDLATVQLLIDGKVILALFTYVKKPERLKIMEWSAAQYEELQLHAIATLSSVAPLLIEEYMSCHGNSRILAFLEWCGHEDSYFIHGNSFHGTGGRGNKFAQMRYTLRLLRAMVYLEDETVNKDLCERGVIHQLIEIFKTMMSRPAEKEEAIALEIQSDTLLILSGLCENYIQRKEMFGTEGVDIVLHVMKTDPKNLQRGLGYNVLLFSTLDSIWCCILGCYDSEDYFLEKEGIFLLLDILALNQKKFCNLILGIMVEFCDNPKTSAHVNAWRGKKDLTAASLLIKLWRKEEKELGVKRDRNGKIVDTKRPLFTSFQEEQKTMPLPANCPSIAVMDVAENIRAKIYAVLDKLDFENLPGLSAEDFVTLCIIHRYFDFKIGEIWNEVSEEIKLEKLRLVTTDEKSLNSIIAATENIGKMVASLQSEMIENQALQDVQNEQRVYAKIQATHKQREQANKSWENFLARTSNAKTLKKAKKLQEKAIESSRYTERPQNATFHQTVIKGLNTTVPSGRVVTVQSTPTRLLGGPLADTDIALKKLPIRGGALQRVKVKPPLNDPKKSIPT
binding: binds

B5: ENO4 (protein, UniProt Q8C042 1-619)
chain: MGDEDGGRRGGITRDLQKLKQQAMAYYQENDVPRKLEDLLNSTFYLQPADVYGHLKANYFSKLAKPPSICKIVGKTILDGLGLPTLQVEISCTIQNFPKYICAVAIPTHFEVVENALPEALDAEDSERAQAVNTAVQWINQSITEELWGLVPSNQAEVDHRLRTFFEHKVQEDKERKELEKSQEELVPAPPPVTLPPPPPPPPPPPSKKKGQKAGRRDTLLEKPVSPPEPPEPVLHGSMAIGAVSLAVAKASATLASDPLYLTLASLKHDQEQPSTFSMPLLMGSVLSCGKSSPGKLHLMKEVICIPSPGLTAKQSVELLLEIQKQVNRAMETLPPPKQETKKGHNGSKRAQPPITGKVSHLGCLTINYDAIEQPLLLLQGICSNLGLELGVNFHLAINCAGHELMDYSKGKYEVMVGTHKSAAEMVELYVDLINKYPSIIALIDPFRKEDAEQWDSLYAALASRCYLIAGAASGSVSKLLECRNISTLKSHGLIIKHTNQTTMSDLVEITHLINGKKLLAVFGSTDSESSDDSLVDLAVGFGARFIKLGGLSRGERMTKYNRLLAIEEELIQRGVWGFSEEHNFSFFQEDATATMAEETLGLLDSIFPTEVIEESAKT
binding: binds

B6: MYCBPAP (protein, UniProt Q5SUV2 1-932)
chain: MMKKITERQSPLKLLEKKRAKAPEQPTPPIQEEPEPVSNVLQGDDILALAIKKEDLRKQHVPQFEETGEKPVVTQKFIIRKLKPKDSSKRVYHLVAHPATPDAATKPLDYSGPHDSFLSSGQILPHQILGSLQDFKRIAVARGNTQLAKLIHIQPCLMTLISAKEEPKPKPPKEEERPSPWAPPPQHNFLKNWRRHIALRKKQQEALSKHLKKPASELLMHTGESYRKIQEEREVIDRALPTQHDGKATSWFWSPLEYLGDEMTGLLMTKKKTQRGLVEPITHIRKPLSIQVETGLPAQKDAWYRYTWDRSLFLIYRRKELQSIMAELDFSQQDIDGLEVVGHGKPFSSVTVEEHLPPEKIQKSSSEDTVFLDSLTNLSDMVPMPILGPSLLFCGKPACWVRGSNPEDKKNIGIGVRLTFETLEGERTSSELTVVNNGTVAIWYNWRRRPHQDFFQDLKQNKTQRFYFNNREGVILPGETKHFTFFFKSLNAGIFRESWEFGTHPTLLGGAVLQVTLHAISLTQDIFMDERKLLETKLAAHEAITIAQSVLQDLLRGISTPERTPSPVDAYLTEEDLFNYRNPRLHYQHQVVQNLHQLWQQYRKAKATQKETPSLRTPVPLLLVEKASGSISPRNLVSEYSQLSPHQEMDTARKTRDFFLSLKSSIGKKSVARKSIMEELLVEEGPDRETTQRPWALKSISPPKWNLCLEDFRQAVMTFPEELQREDALIQLNKAAMELCQEQKPLQSDLLYQMCLQLWRDVIDSLVSQSLWLRNLLGLPEKETVYLDLPDEQGQKSPPVTESKVTSGKAGKEDRRGGAQEKKQLGTKDKDDKRGSKTPGKEDRPNSKKLKPKDDKKVVKSASRDRLLSEDPPPDSTAPSQEPIDPLVMEKYTQRLHAEVYALLDNLVTDVMVLADELSSTKNVEESLRFCS
binding: binds

B7: CFAP73 (protein, UniProt J3QPZ5 1-306)
chain: MAVTWEEYFRLVFSEKVQPKPLEQTGDDSSVLQLILEKKEELAVADLGLQAQKKEYRSTIESVNQRWRELEQKGQELQGSVISYDKFLKEVEARRAARKAIEERKITGNLDAELRRLRTQLKELRLQRARLQRKVQRLEPCARILKRALEKRPVFEEVSDLVARFETLVSTKAALKLEEQKRLVEMESTRAQLLSLQSEKQDEMLNLNQQRTQLVEQLEAAREHRQQWESKWTEILNSASEKTLLLGRARMAVLNLYHLVRLQQGRRQTLDVRDVEGQLEEVKRFIMNISATLAKLALAQPTATAS
binding: binds

B8: EFHC2 (protein, UniProt Q9D485 1-750)
chain: MALPFLPGNSFNRNIGKERFHKSQHWGFCNNVRMLVSENKPGVGGDLLYGQKIKPKHSVFPKGDGTDAPSWVAFDKQVLSFDAYLEDEISDKRQEIFRIRYYKIYFYLEDDTIQVNEPEVINSGLPQGTSIRRQRIPYPPPNDDQFYTVYDFNINISVVFYGRTFKIYDCDPFTKNFLKKIGIKLNPPGQCPLDPYMKMRRETLEFVDPFRPYQSFDTLKRFIQYDGKVLRFFCLWDDSTSLFGDRREFVLHYFLCDGTVEIREVLPSNSGRDAMSSFLRRGKLPKYGPPGIYQPGQITDRAVLNVYGGLSEWRADGYLLDKYQLGKVEQDFYTDQDLSIGATINVWGRKVLLCDCDEFTKTYYRTKYGVDNFTPISCKPPHLPKIERKYPPYTGFGSEEDSFRSCVGLKPTPHRKNFKKFMELDSFGNISNILRYFGKLITHKCADVDRIFVIAFYLSDDTISVFEPIENNSGNAGGMFLKRSRVKKPGQEVFKSEFSEYIKAEELYIGATVNINGYLFILLNADEYTLNYMENNTDKFPYSNFELAIQKLKQEKSKSREITQVFAAADYNHTKVVPYNTFRDILMSITMGKLIDQELITIARHYRVPEIMDPDLAYLIARAHEKFKKNIFENFDMFIYNCVYEDREKKGVLPTKDIRRMCKSSRLPLDDDFLDCLLSRFEDKDHQINYEIFFSVLNWRMNPTPDLQAPPYLKEKCEDVWVGMPSPIPVKYVRYLDFLIDVYGLEDNML
binding: binds

No constants are given. Whether binding was seen depends on the method and setting. In cells and extracts the contact can be indirect. A yes stands for co-enrichment or nearness to the bait. Other partners may have been found. Sequences can lack the tags named with a protein.
